From paper PMC6447414 come the findings set out here.

Results are given in words; binding and its absence hold for the method and conditions named. In cells and extracts the contact can be indirect. Here binding means that the protein was enriched with, or labelled near, the bait; the list need not be complete. No binding means not detected with the bait. Sequences can lack the tags named with a protein.

For one experiment, the target named is T1, 3xFLAG-Zfp423 (UniProt Q80TS5).
T1 sequence: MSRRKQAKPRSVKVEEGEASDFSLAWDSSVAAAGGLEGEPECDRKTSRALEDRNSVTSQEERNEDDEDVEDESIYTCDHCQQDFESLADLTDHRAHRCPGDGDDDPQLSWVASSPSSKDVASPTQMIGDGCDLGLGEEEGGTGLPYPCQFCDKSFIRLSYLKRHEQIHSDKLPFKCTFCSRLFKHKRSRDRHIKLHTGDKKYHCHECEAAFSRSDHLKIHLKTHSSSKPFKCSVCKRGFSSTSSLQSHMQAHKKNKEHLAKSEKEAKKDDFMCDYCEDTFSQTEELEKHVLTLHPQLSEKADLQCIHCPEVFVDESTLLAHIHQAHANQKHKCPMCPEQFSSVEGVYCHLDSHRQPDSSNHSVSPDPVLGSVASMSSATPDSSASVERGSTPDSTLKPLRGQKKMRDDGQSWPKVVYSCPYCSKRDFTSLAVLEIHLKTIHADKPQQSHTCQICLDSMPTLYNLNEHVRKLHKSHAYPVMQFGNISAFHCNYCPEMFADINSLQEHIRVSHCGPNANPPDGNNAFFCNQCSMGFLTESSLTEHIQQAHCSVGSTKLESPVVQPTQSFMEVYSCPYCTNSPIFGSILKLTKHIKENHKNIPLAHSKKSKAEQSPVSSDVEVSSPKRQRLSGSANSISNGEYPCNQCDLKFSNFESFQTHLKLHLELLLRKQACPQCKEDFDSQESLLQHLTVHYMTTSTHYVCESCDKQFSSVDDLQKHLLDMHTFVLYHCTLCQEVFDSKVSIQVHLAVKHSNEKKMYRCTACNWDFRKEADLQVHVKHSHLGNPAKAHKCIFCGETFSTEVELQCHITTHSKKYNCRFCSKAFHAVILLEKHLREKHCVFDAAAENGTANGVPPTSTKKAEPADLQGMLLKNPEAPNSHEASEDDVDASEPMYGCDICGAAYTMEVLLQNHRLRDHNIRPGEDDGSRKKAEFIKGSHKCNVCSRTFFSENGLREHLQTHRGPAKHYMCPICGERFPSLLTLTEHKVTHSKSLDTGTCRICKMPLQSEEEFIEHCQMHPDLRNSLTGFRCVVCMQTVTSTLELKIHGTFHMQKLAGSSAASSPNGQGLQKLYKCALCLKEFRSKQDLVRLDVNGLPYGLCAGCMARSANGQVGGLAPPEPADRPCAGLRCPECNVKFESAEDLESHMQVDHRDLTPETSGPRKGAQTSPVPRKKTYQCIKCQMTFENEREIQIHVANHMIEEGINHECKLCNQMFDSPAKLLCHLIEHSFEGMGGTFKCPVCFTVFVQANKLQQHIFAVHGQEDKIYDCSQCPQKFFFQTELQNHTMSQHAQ
As to the kind of experiment: affinity purification with mass spectrometry; 3xFLAG-Zfp423 purified from C2C12 nuclear extracts with anti-FLAG M2 magnetic beads, 3 h at 4°C, washes with buffer D (20 mM HEPES, 150 mM KCl, 0.05% NP-40, 10% glycerol) and buffer D with 500 mM KCl, eluted with 3xFLAG peptide, LC-MS/MS.

For a further experiment, the target named is T2, 3xFLAG-Zfp423, Q80TS5.
T2 chain: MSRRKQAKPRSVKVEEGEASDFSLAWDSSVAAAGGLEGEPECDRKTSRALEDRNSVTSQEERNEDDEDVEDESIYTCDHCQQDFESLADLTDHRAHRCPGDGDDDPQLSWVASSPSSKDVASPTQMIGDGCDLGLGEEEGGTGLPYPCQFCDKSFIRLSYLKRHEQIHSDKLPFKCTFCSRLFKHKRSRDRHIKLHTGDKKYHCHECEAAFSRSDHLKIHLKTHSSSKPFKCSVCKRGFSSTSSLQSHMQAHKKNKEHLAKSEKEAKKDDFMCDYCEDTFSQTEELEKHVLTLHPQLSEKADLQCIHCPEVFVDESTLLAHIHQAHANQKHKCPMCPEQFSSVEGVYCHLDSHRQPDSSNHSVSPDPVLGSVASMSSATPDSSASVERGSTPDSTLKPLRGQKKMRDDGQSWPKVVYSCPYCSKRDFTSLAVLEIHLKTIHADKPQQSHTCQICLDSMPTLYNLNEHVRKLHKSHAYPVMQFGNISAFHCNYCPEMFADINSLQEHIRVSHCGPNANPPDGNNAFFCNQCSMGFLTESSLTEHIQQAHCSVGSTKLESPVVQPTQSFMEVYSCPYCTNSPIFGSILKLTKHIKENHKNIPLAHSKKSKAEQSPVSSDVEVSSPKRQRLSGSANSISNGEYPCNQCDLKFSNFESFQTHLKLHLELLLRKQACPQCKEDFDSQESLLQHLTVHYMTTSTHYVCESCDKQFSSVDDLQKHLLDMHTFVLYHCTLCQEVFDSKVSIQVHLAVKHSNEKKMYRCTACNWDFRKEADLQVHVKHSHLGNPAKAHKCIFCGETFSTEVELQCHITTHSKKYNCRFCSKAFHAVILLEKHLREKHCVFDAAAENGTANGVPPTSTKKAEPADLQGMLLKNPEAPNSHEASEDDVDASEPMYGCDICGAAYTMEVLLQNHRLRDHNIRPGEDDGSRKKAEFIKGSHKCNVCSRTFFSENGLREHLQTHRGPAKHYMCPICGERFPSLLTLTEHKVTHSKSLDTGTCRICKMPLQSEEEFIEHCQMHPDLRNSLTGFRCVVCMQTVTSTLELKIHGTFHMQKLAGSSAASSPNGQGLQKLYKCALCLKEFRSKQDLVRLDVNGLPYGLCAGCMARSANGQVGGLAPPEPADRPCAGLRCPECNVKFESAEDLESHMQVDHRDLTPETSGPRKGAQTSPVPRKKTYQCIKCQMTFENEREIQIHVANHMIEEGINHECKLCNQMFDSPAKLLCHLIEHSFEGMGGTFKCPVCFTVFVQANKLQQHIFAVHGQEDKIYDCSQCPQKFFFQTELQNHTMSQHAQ
Described as above. To be noted: remark: other sources report otherwise.

For the molecule “Notch1 intracellular domain (Nicd1), endogenous in C2C12 (mouse (endogenous in C2C12)) (domain or fragment)”, in the experiment with 3xFLAG-Zfp423, the binding entry is “no binding”.

B1: Ebf1, endogenous in C2C12, Q07802 1-591 (protein)
chain: MFGIQESIQRSGSSMKEEPLGSGMNAVRTWMQGAGVLDANTAAQSGVGLARAHFEKQPPSNLRKSNFFHFVLALYDRQGQPVEIERTAFVGFVEKEKEANSEKTNNGIHYRLQLLYSNGIRTEQDFYVRLIDSMTKQAIVYEGQDKNPEMCRVLLTHEIMCSRCCDKKSCGNRNETPSDPVIIDRFFLKFFLKCNQNCLKNAGNPRDMRRFQVVVSTTVNVDGHVLAVSDNMFVHNNSKHGRRARRLDPSEGTPSYLEHATPCIKAISPSEGWTTGGATVIIIGDNFFDGLQVIFGTMLVWSELITPHAIRVQTPPRHIPGVVEVTLSYKSKQFCKGTPGRFIYTALNEPTIDYGFQRLQKVIPRHPGDPERLPKEVILKRAADLVEALYGMPHNNQEIILKRAADIAEALYSVPRNHNQLPALANTSVHAGMMGVNSFSGQLAVNVSEASQATNQGFTRNSSSVSPHGYVPSTTPQQTNYNSVTTSMNGYGSAAMSNLGGSPTFLNGSAANSPYAIVPSSPTMASSTSLPSNCSSSSGIFSFSPANMVSAVKQKSAFAPVVRPQTSPPPTCTSTNGNSLQAISGMIVPPM
For B1, in the experiment with 3xFLAG-Zfp423, Q80TS5, the binding result is recorded as “no binding”.
